According to patent US20110098257A1, “DERIVATIVES OF 4- OR 5-AMINOSALICYLIC ACID” (ANTIBE THERAPEUTICS INC., priority 2005, published 2011):

Assay: H2S generation in buffer, liver homogenate, and homogenate plus PAG
Parameters: species or system rat
Conditions: 1 mM compound, FIG. 21; for H2S release in buffer: potassium phosphate buffer pH 7.4, 37° C.; for H2S release in the presence of tissue (liver homogenate): 10% (wt/vol) rat liver homogenate, compared with buffer; for H2S generation in liver homogenate with PAG (DL-propargylglycine): PAG 2 mM, inhibitor of cystathionine γ-lyase

Compound	H2S release in buffer	H2S release in the presence of tissue (liver homogenate)	H2S generation in liver homogenate with PAG (DL-propargylglycine)
Oc1ccc(-c2cc(=S)ss2)cc1 [ADT-OH, 5-p-hydroxyphenyl-1,2-dithione-3-thione, reference compound]	did not release significant H2S	–	–
NC(=S)c1ccc(O)cc1 [Compound 4-HTB, 4-hydroxythiobenzamide, reference compound]	did not release significant H2S	–	–
NC(=S)c1ccc(OC(=O)c2cc(N)ccc2O)cc1 [Compound XXVII, 5-Amino-2-hydroxy-benzoic acid 4-thiocarbamoyl-phenyl ester]	release H2S spontaneously (in buffer)	greater when in the presence of tissue	lack of effect
Nc1ccc(O)c(C(=O)Oc2ccc(-c3cc(=S)ss3)cc2)c1 [Compound XXXV, 5-Amino-2-hydroxy-benzoic acid 4-(5-thioxo-5H-[1,2]dithiol-3-yl)-phenyl ester]	release H2S spontaneously (in buffer)	greater when in the presence of tissue	lack of effect
N[C@@H](CS)C(=O)O [L-cysteine, reference compound]	did not release significant H2S	–	markedly inhibited by PAG

Some compounds share one wording; it may come from a single statement.
